# Data as given in PubChem BioAssay AID652272 (Drosophila RNAi Screening Center, 2013)
# Assay: 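Genes whose knock-down decreases or increases Hedgehog reporter output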 (primary screen)
# Cell system: Drosophila clone 8 (Cl8) cells
# Reagents: long dsRNA against Drosophila genes
# Read-out: 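Plate reader light from a firefly reporter under a ptc promoter fragment that responds to Hedgehog, with Renilla light as transfection reference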
# Scale: firefly Hh reporter signal: higher = more ptc reporter light; Renilla reference signal: higher = more Renilla control light
# Hit rule: 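Called a hit if the two-replicate mean z-score lies below -2 or above +3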
# Calls: active = hit: reporter lowered or raised; inactive = not a hit
# The deposit covers about 21,000 reagents; below is a random part of those that have a named target and a result. In the full data, 503 (2.4%) got an active call. 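Raw plate light values, not normalised; calls rest on replicate z-scores that were not deposited; hits include reporter decreases as well as increases.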 Unmarked entries are inactive. Reagent sequences are not shown. Not stated in the record: the amount of reagent, the time to read-out.
Gene,amplicon,"firefly Hh reporter signal, replicate 1","firefly Hh reporter signal, replicate 2","firefly Hh reporter signal, replicate 3","Renilla reference signal, replicate 1","Renilla reference signal, replicate 2"
CG34242,DRSC09185,1.92e5,2.75e5,,5718,12407
Gtpx,DRSC08221,1.63e5,1.33e5,,6964,5042
zen2,DRSC12633,67947,83602,,3396,2704
ctrip,DRSC12242,69900 (active),66496,,3450,3221
ctrip,DRSC12287,88672,62406,,4884,3381
CG6984,DRSC07013,1.20e5,1.15e5,,4373,4144
blw,DRSC04675,53616,53106,,1108,4832
mthl15,DRSC01120,4.37e5,1.49e5,,24155,6397
SmydA-2,DRSC10296,78631,1.32e5,,1516,4120
CG9411,DRSC20184,1.50e5,82250,,3458,2292
Dyrk3,DRSC21055,3.72e5 (active),1.55e5,,32172,5728
osp,DRSC01409,1.27e5,2.41e5,,3659,12000
osp,DRSC03585,34554,47532,,1680,2437
Trf4-1,DRSC17775,1.22e5,3.64e5,,4224,11149
Spn77Ba,DRSC10693,74632,1.01e5,,3221,3868
O-fut1,DRSC06138,1.44e5,95184,,5552,3904
Srg2,DRSC10681,60304,69696,,3010,2567
CG9451,DRSC11074,97821,86506,,3682,2221
brp,DRSC06245,98074,64227,,2560,4632
brp,DRSC06246,1.02e5,61208,,2627,3984
brp,DRSC06801,1.05e5,59387,,2673,4897
CG5003,DRSC15694,72992,89760,,1500,2707
HUWE1,DRSC20089,65794,1.51e5,,2373,8157
Herp,DRSC02394,1.09e5,57337,,3312,2425

Hits, of those listed so far:
Gene,amplicon,"firefly Hh reporter signal, replicate 1","firefly Hh reporter signal, replicate 2","firefly Hh reporter signal, replicate 3","Renilla reference signal, replicate 1","Renilla reference signal, replicate 2"
ctrip,DRSC12242,69900 (active),66496,,3450,3221
Dyrk3,DRSC21055,3.72e5 (active),1.55e5,,32172,5728

Continued:
Gene,amplicon,"firefly Hh reporter signal, replicate 1","firefly Hh reporter signal, replicate 2","firefly Hh reporter signal, replicate 3","Renilla reference signal, replicate 1","Renilla reference signal, replicate 2"
Or82a,DRSC11996,2.27e5,,,5261,
TM9SF2,DRSC03197,1.25e5,65861,,4336,2473
CG4239,DRSC19885,56722,53853,,1243,931
CG15035,DRSC17967,80181,2.51e5,,3003,8779
CG8519,DRSC10985,43736,47906,,5616,3804
CG13992,DRSC02324,85216,54470,,2282,5360
CG14229,DRSC19585,49521,1.65e5,,1082,6955
Ir62a,DRSC08250,65287,36817,,1975,3248
mRpL14,DRSC18597,51408,2.10e5,,1223,7648
lwr,DRSC00828,88640,68409,,4242,2944
Baldspot,DRSC09671,1.56e5,,,1495,7011
Shc,DRSC11284,31088,43194,49868,3229,3332
eya,DRSC03510,1.10e5,80176,,4152,2353
CG9926,DRSC16582,1.44e5,1.04e5,,6288,4073
CG31998,DRSC17137,1.45e5,73348,,2710,2800
CG31998,DRSC17138,73376,2.08e5,,2252,7755
